Data: patent US11129867B2, “Method of treating cancer cells” (priority 2017, dated 2021)
At least one peptide structure holds a part that was inferred or is arguable (an end, a ring closure or a residue). Where no end group is shown, it is not given here.

Test system: Poly (ADP-ribose) polymerase (PARP)
Test: Western blotting of PARP cleavage
Assay type: cell-based, human
Conditions: Ca922, 25 μM, 6 hours, FIG. 11A
Protocol: Protein expression of Poly (ADP-ribose) polymerase (PARP) were examined in Ca922 cells treated with 25 μM TMR-GBP for 6 hours.
Protein lysate of Ca922 cells treated with TMR-GBP 25 μM were blotted with antibodies against Caspase-3, Caspase-7, Caspase-9 and Poly (ADP-ribose) polymerase (PARP). Representative blots are shown.
Western Blotting Analysis
Cells were harvested by trypsion or scratch and lysed in RIPA buffer (50 mM Tris-HCl, pH 7.4, 150 mM NaCl, 0.1% SDS, 0.5% Sodium deoxycholate, 1% NP-40) supplemented with 1× protease inhibitor cocktail. Sample was incubated on ice for 30 minutes and scraped every 10 minutes. Centrifuge at 13,000 rpm at 4° C. for 15 minutes, then collect supernatant for analysis. Protein concentration was determined by Bradford assay. First, 5× Bradford assay dye reagent was diluted into […], and mixture with RIPA (as standard) or samples. Concentration was obtained by spectrophotometer measurement. Equal volume of 2× laemmli buffer containing β-ME was added into protein lysate for goal concentration. Protein samples were boiled at 100° C. for 15 minutes and resolved by 10% SDS-PAGE gel or 4%-15% gradient gel. […] Washing the membrane three times with 1×PBST for every 5 minutes, protein band was detected by modified ECL (ddH2O, […] Tris pH8.0, 200 μM p-coumaric acid, 1.25 mM luminal, 0.001% H2O2) with ImageQuant LAS 4000 digital imaging system.

NYRWRCKNQN [GBP, reference compound]
PARP cleavage: only TMR-GBP induced PARP cleavage
